# Experimental data: PubChem BioAssay AID1224828 (NIAID, 2016)
# Aim: 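Regulators linking TLR4 signalling to p65 nuclear translocation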 (primary screen)
# Cells: mouse RAW264.7 G9 macrophage reporter cells (GFP-p65, Tnf promoter-mCherry)
# Reagent: siRNA pool against mouse genes, 100 nM
# Duration: 2 days siRNA transfection, then 40 min LPS before fixation
# Challenge: LPS (Salmonella minnesota R595) at 10 ng/ml
# Detection: 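Imaged p65 nuclear translocation ratio, normalised to the plate median, converted to robust z-scores and averaged across two replicates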
# Direction: p65 translocation robust z-score: higher = more nuclear NF-kappaB p65 after LPS than the plate median; nuclear/cytoplasmic p65 ratio: higher = more nuclear NF-kappaB p65
# Hit rule: 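Called active when z exceeds 3.3 or falls under -1.56 (median of Tlr4 controls), giving activity score of at least 50; no calls for control wells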
# Meaning of the calls: active = hit (p65 shift raised or lowered); inactive = no clear change
# This is one part, drawn at random, of about 17,000 deposited reagents. 762 of them (4.5%) count as active. 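Active calls include both raised and lowered p65 entry, mostly lowered; wells with fewer than 50 cells lack a z-score.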 Raw values are not corrected between plates. The numbers tell different reagents against one gene apart.
gene knocked down,reagent,p65 translocation robust z-score,"nuclear/cytoplasmic p65 ratio, rep 1","nuclear/cytoplasmic p65 ratio, rep 2",low cell count flag,Call
"Nr2e3 (nuclear receptor subfamily 2, group E, member 3)",1,-0.92,1.39,1.24,enough cells to score,inactive
Thoc5 (THO complex 5),1,-1.23,1.39,1.38,enough cells to score,inactive
Ica1 (islet cell autoantigen 1),1,-0.12,1.6,1.36,enough cells to score,inactive
Laptm5 (lysosomal-associated protein transmembrane 5),1,1.78,1.91,1.58,enough cells to score,inactive
Or9i2 (olfactory receptor family 9 subfamily I member 2),1,,1.72,1.14,fewer than 50 cells per well; well left out of scoring,inactive
"Clcn5 (chloride channel, voltage-sensitive 5)",1,-0.94,1.34,1.26,enough cells to score,inactive
Rassf1 (Ras association (RalGDS/AF-6) domain family member 1),1,-0.94,1.4,1.36,enough cells to score,inactive
Gtf2e2,1,0.7,1.43,1.55,enough cells to score,inactive
"Vdr (vitamin D (1,25-dihydroxyvitamin D3) receptor)",1,0.65,1.63,1.57,enough cells to score,inactive
Kmt2b (lysine (K)-specific methyltransferase 2B),1,0.29,1.59,1.72,enough cells to score,inactive
Klhl4 (kelch-like 4),1,1.22,1.67,1.64,enough cells to score,inactive
Hacl2 (2-hydroxyacyl-CoA lyase 2),1,,1.34,1.2,fewer than 50 cells per well; well left out of scoring,inactive
Rnf186 (ring finger protein 186),1,-0.81,1.31,1.44,enough cells to score,inactive
Krt33a (keratin 33A),1,0.2,1.33,1.39,enough cells to score,inactive
Plekha2 (pleckstrin homology domain containing A2),1,,1.1,1.1,fewer than 50 cells per well; well left out of scoring,inactive
Tmc5 (transmembrane channel-like gene family 5),1,,1.42,1.14,fewer than 50 cells per well; well left out of scoring,inactive
Dab1 (disabled 1),1,-0.37,1.41,1.33,enough cells to score,inactive
Dab1 (disabled 1),2,1.27,1.66,2.12,enough cells to score,inactive
Nsa2 (NSA2 ribosome biogenesis homolog),1,,1.33,1.5,fewer than 50 cells per well; well left out of scoring,inactive
Kctd9 (potassium channel tetramerisation domain containing 9),1,-1.7,1.34,1.18,enough cells to score,active
"Cyp3a41a (cytochrome P450, family 3, subfamily a, polypeptide 41A)",1,1.18,1.71,2.03,enough cells to score,inactive
Mcm7 (minichromosome maintenance complex component 7),1,0.47,1.51,1.4,enough cells to score,inactive
Smug1,1,,1.17,1.07,fewer than 50 cells per well; well left out of scoring,inactive
Zfp830 (zinc finger protein 830),1,,1.45,1.33,fewer than 50 cells per well; well left out of scoring,inactive
Ptprk (protein tyrosine phosphatase receptor type K),1,-0.12,1.57,1.43,enough cells to score,inactive
Katna1 (katanin p60 (ATPase-containing) subunit A1),1,0.79,1.66,1.54,enough cells to score,inactive
Nek4 (NIMA (never in mitosis gene a)-related expressed kinase 4),1,-0.82,1.61,1.23,enough cells to score,inactive
"Aldh9a1 (aldehyde dehydrogenase 9, subfamily A1)",1,1.55,1.8,1.9,enough cells to score,inactive
Slc51b,1,-0.27,1.37,1.21,enough cells to score,inactive
Ebp (EBP cholestenol delta-isomerase),1,2.15,1.83,1.58,enough cells to score,inactive
Pex6 (peroxisomal biogenesis factor 6),1,0.38,1.53,1.43,enough cells to score,inactive
Cdca2 (cell division cycle associated 2),1,0.59,1.42,1.6,enough cells to score,inactive
Rasa2 (RAS p21 protein activator 2),1,-0.38,1.42,1.51,enough cells to score,inactive
Uqcrb (ubiquinol-cytochrome c reductase binding protein),1,-0.47,1.34,1.16,enough cells to score,inactive
Rnf125 (ring finger protein 125),1,-0.7,1.35,1.12,enough cells to score,inactive
Fxyd2 (FXYD domain-containing ion transport regulator 2),1,-0.68,1.31,1.31,enough cells to score,inactive
"Pigt (phosphatidylinositol glycan anchor biosynthesis, class T)",1,-0.06,1.43,1.24,enough cells to score,inactive
Or51a5 (olfactory receptor family 51 subfamily A member 5),1,-0.72,1.34,1.24,enough cells to score,inactive
Cpne2 (copine II),1,-0.69,1.54,1.6,enough cells to score,inactive
Or1a1b (olfactory receptor family 1 subfamily A member 1B),1,0.61,1.65,1.62,enough cells to score,inactive
